Data taken from the supplement of paper PMC8728848.
The other results are listed elsewhere or left out.

Key:
Experiment in all cases: glycan array binding signal (z-score within array); higher = stronger binding
Conditions in all cases: glycan notation: IUPAC condensed, linker removed
Neu5Ac(a2-6)Gal = molecular target: Neu5Ac(a2-6)Gal
Method in brief: (§1)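 Glycan array binding is given as a within-array Z-score, which can be read as non-binding when negative. The arrays, 3228 of them, came from the Consortium for Functional Glycomics database and were retained only where the protein sequence was available. Z-scores were averaged across arrays of the same protein sequence at different concentrations or buffers and across linkers.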

[1] = molecular target: Neu5Ac(a2-6)Gal(b1-3)GlcNAc(b1-3)[Gal(b1-4)GlcNAc(b1-6)]Gal(b1-4)Glc
Method in brief: as §1

Neu5Ac(a2-6)Gal(b1-4)Glc = molecular target: Neu5Ac(a2-6)Gal(b1-4)Glc
Method in brief: as §1

[2] = molecular target: Neu5Ac(a2-6)Gal(b1-4)GlcNAc
Method in brief: as §1

[3] = molecular target: Neu5Ac(a2-6)Gal(b1-4)GlcNAc(b1-2)Man
Method in brief: as §1

[4] = molecular target: Neu5Ac(a2-6)Gal(b1-4)GlcNAc(b1-2)Man(a1-3)Man(b1-4)GlcNAc(b1-4)GlcNAc
Method in brief: as §1

[5] = molecular target: Neu5Ac(a2-6)Gal(b1-4)GlcNAc(b1-2)Man(a1-3)[Gal(b1-4)GlcNAc(b1-2)Man(a1-6)]Man(b1-4)GlcNAc(b1-4)GlcNAc
Method in brief: as §1

[6] = molecular target: Neu5Ac(a2-6)Gal(b1-4)GlcNAc(b1-2)Man(a1-3)[GlcNAc(b1-2)Man(a1-6)]Man(b1-4)GlcNAc(b1-4)GlcNAc
Method in brief: as §1

[7] = molecular target: Neu5Ac(a2-6)Gal(b1-4)GlcNAc(b1-2)Man(a1-3)[GlcNAc(b1-2)Man(b1-4)GlcNAc(b1-2)Man(a1-6)]Man(b1-4)GlcNAc(b1-4)GlcNAc
Method in brief: as §1

[8] = molecular target: Neu5Ac(a2-6)Gal(b1-4)GlcNAc(b1-2)Man(a1-3)[GlcNAc(b1-4)][Neu5Ac(a2-6)Gal(b1-4)GlcNAc(b1-2)Man(a1-6)]Man(b1-4)GlcNAc(b1-4)GlcNAc
Method in brief: as §1

[9] = molecular target: Neu5Ac(a2-6)Gal(b1-4)GlcNAc(b1-2)Man(a1-3)[Man(a1-6)]Man(b1-4)GlcNAc(b1-4)GlcNAc
Method in brief: as §1

[10] = molecular target: Neu5Ac(a2-6)Gal(b1-4)GlcNAc(b1-2)Man(a1-3)[Neu5Ac(a2-3)Gal(b1-4)GlcNAc(b1-2)Man(a1-6)]Man(b1-4)GlcNAc(b1-4)GlcNAc
Method in brief: as §1

[11] = molecular target: Neu5Ac(a2-6)Gal(b1-4)GlcNAc(b1-2)Man(a1-3)[Neu5Ac(a2-6)Gal(b1-4)GlcNAc(b1-2)Man(a1-6)]Man(b1-4)GlcNAc(b1-4)GlcNAc
Method in brief: as §1

[12] = molecular target: Neu5Ac(a2-6)Gal(b1-4)GlcNAc(b1-2)Man(a1-3)[Neu5Ac(a2-6)Gal(b1-4)GlcNAc(b1-2)Man(a1-6)]Man(b1-4)GlcNAc(b1-4)[Fuc(a1-6)]GlcNAc
Method in brief: as §1

[13] = molecular target: Neu5Ac(a2-6)Gal(b1-4)GlcNAc(b1-2)Man(a1-6)Man(b1-4)GlcNAc(b1-4)GlcNAc
Method in brief: as §1

[14] = molecular target: Neu5Ac(a2-6)Gal(b1-4)GlcNAc(b1-2)Man(a1-6)[Gal(b1-4)GlcNAc(b1-2)Man(a1-3)]Man(b1-4)GlcNAc(b1-4)GlcNAc
Method in brief: as §1

[15] = molecular target: Neu5Ac(a2-6)Gal(b1-4)GlcNAc(b1-2)Man(a1-6)[GlcNAc(b1-2)Man(a1-3)]Man(b1-4)GlcNAc(b1-4)GlcNAc
Method in brief: as §1

[16] = molecular target: Neu5Ac(a2-6)Gal(b1-4)GlcNAc(b1-2)Man(a1-6)[Man(a1-3)]Man(b1-4)GlcNAc(b1-4)GlcNAc
Method in brief: as §1

[17] = molecular target: Neu5Ac(a2-6)Gal(b1-4)GlcNAc(b1-2)[Neu5Ac(a2-6)Gal(b1-4)GlcNAc(b1-4)]Man(a1-3)[GlcNAc(b1-4)][Neu5Ac(a2-6)Gal(b1-4)GlcNAc(b1-2)[Neu5Ac(a2-6)Gal(b1-4)GlcNAc(b1-6)]Man(a1-6)]Man(b1-4)GlcNAc(b1-4)GlcNAc
Method in brief: as §1

[18] = molecular target: Neu5Ac(a2-6)Gal(b1-4)GlcNAc(b1-2)[Neu5Ac(a2-6)Gal(b1-4)GlcNAc(b1-4)]Man(a1-3)[GlcNAc(b1-4)][Neu5Ac(a2-6)Gal(b1-4)GlcNAc(b1-4)Man(a1-6)]Man(b1-4)GlcNAc(b1-4)GlcNAc
Method in brief: as §1

[19] = molecular target: Neu5Ac(a2-6)Gal(b1-4)GlcNAc(b1-2)[Neu5Ac(a2-6)Gal(b1-4)GlcNAc(b1-6)]Man(a1-6)[Neu5Ac(a2-6)Gal(b1-4)GlcNAc(b1-2)Man(a1-3)][GlcNAc(b1-4)]Man(b1-4)GlcNAc(b1-4)GlcNAc
Method in brief: as §1

[20] = molecular target: Neu5Ac(a2-6)Gal(b1-4)GlcNAc(b1-3)Gal(b1-3)GlcNAc
Method in brief: as §1

[21] = molecular target: Neu5Ac(a2-6)Gal(b1-4)GlcNAc(b1-3)Gal(b1-4)GlcNAc
Method in brief: as §1

[22] = molecular target: Neu5Ac(a2-6)Gal(b1-4)GlcNAc(b1-3)Gal(b1-4)GlcNAc(b1-2)Man(a1-3)[Neu5Ac(a2-6)Gal(b1-4)GlcNAc(b1-3)Gal(b1-4)GlcNAc(b1-2)Man(a1-6)]GalNAc
Method in brief: as §1

[23] = molecular target: Neu5Ac(a2-6)Gal(b1-4)GlcNAc(b1-3)Gal(b1-4)GlcNAc(b1-3)Gal(b1-4)GlcNAc
Method in brief: as §1

[24] = molecular target: Neu5Ac(a2-6)Gal(b1-4)GlcNAc(b1-3)Gal(b1-4)GlcNAc(b1-3)Gal(b1-4)GlcNAc(b1-2)Man(a1-3)[Neu5Ac(a2-6)Gal(b1-4)GlcNAc(b1-3)Gal(b1-4)GlcNAc(b1-3)Gal(b1-4)GlcNAc(b1-2)Man(a1-6)]GalNAc
Method in brief: as §1

[25] = molecular target: Neu5Ac(a2-6)Gal(b1-4)GlcNAc(b1-3)Gal(b1-4)GlcNAc(b1-3)GalNAc
Method in brief: as §1

[26] = molecular target: Neu5Ac(a2-6)Gal(b1-4)GlcNAc(b1-3)Gal(b1-4)GlcNAc(b1-3)[Neu5Ac(a2-6)Gal(b1-4)GlcNAc(b1-3)Gal(b1-4)GlcNAc(b1-6)]GalNAc
Method in brief: as §1

[27] = molecular target: Neu5Ac(a2-6)Gal(b1-4)GlcNAc(b1-3)Gal(b1-4)GlcNAc(b1-6)[Gal(b1-3)]GalNAc
Method in brief: as §1

[28] = molecular target: Neu5Ac(a2-6)Gal(b1-4)GlcNAc(b1-3)Gal(b1-4)[Fuc(a1-3)]GlcNAc(b1-3)Gal(b1-4)[Fuc(a1-3)]GlcNAc
Method in brief: as §1

[29] = molecular target: Neu5Ac(a2-6)Gal(b1-4)GlcNAc(b1-3)GalNAc
Method in brief: as §1

[30] = molecular target: Neu5Ac(a2-6)Gal(b1-4)GlcNAc(b1-3)[Neu5Ac(a2-6)Gal(b1-4)GlcNAc(b1-6)]GalNAc
Method in brief: as §1

[31] = molecular target: Neu5Ac(a2-6)Gal(b1-4)GlcNAc(b1-6)GalNAc
Method in brief: as §1

[32] = molecular target: Neu5Ac(a2-6)Gal(b1-4)GlcNAc(b1-6)[Gal(b1-3)GlcNAc(b1-3)]Gal(b1-4)Glc
Method in brief: as §1

[33] = molecular target: Neu5Ac(a2-6)Gal(b1-4)GlcNAc(b1-6)[Gal(b1-3)]GalNAc
Method in brief: as §1

[34] = molecular target: Neu5Ac(a2-6)Gal(b1-4)GlcNAc6S
Method in brief: as §1

B1: Flo1 (Saccharomyces cerevisiae), P32768 (protein)
chain: SGATEACLPAGQRKSGMNINFYQYSLKDSSTYSNAAYMAYGYASKTKLGSVGGQTDISIDYNIPCVSSSGTFPCPQEDSYGNWGCKGMGACSNSQGIAYWSTDLFGFYTTPTNVTLEMTGYFLPPQTGSYTFKFATVDDSAILSVGGATAFNCCAQQQPPITSTNFTIDGIKPWGGSLPPNIEGTVYMYAGYYYPMKVVYSNAVSWGTLPISVTLPDGTTVSDDFEGYVYSFDDDLSQSNCTVPDPSNY
Question: Which “glycan array binding signal (z-score)” value (Neu5Ac(a2-6)Gal) does the source give for B1 here?
Answer: Its value is -0.325.

Question: And the “glycan array binding signal (z-score)” value [1]?
Answer: Its value is -0.17.

Question: What about the “glycan array binding signal (z-score)” value (Neu5Ac(a2-6)Gal(b1-4)Glc) of the same binder?
Answer: Its value is -0.397.

Question: What about the “glycan array binding signal (z-score)” value [2] of the same binder?
Answer: Its value is -0.421.

Question: And the “glycan array binding signal (z-score)” value [3]?
Answer: The value was 0.146.

Question: And the “glycan array binding signal (z-score)” value [4]?
Answer: Its value is 0.967.

Question: What about the “glycan array binding signal (z-score)” value [5] of the same binder?
Answer: Its value is 0.002.

Question: What about the “glycan array binding signal (z-score)” value [6] of the same binder?
Answer: Its value is 0.289.

Question: And the “glycan array binding signal (z-score)” value [7]?
Answer: The value was -0.442.

Question: What about the “glycan array binding signal (z-score)” value [8] of the same binder?
Answer: Its value is -0.297.

Question: And the “glycan array binding signal (z-score)” value [9]?
Answer: The value was 0.393.

Question: What about the “glycan array binding signal (z-score)” value [10] of the same binder?
Answer: The value was -0.072.

Question: And the “glycan array binding signal (z-score)” value [11]?
Answer: The value was 0.464.

Question: And the “glycan array binding signal (z-score)” value [12]?
Answer: Its value is -0.061.

Question: What about the “glycan array binding signal (z-score)” value [13] of the same binder?
Answer: Its value is -0.065.

Question: And the “glycan array binding signal (z-score)” value [14]?
Answer: Its value is -0.292.

Question: And the “glycan array binding signal (z-score)” value [15]?
Answer: The value was -0.105.

Question: What about the “glycan array binding signal (z-score)” value [16] of the same binder?
Answer: The value was 0.239.

Question: And the “glycan array binding signal (z-score)” value [17]?
Answer: The value was -0.043.

Question: And the “glycan array binding signal (z-score)” value [18]?
Answer: Its value is 1.92.

Question: And the “glycan array binding signal (z-score)” value [19]?
Answer: Its value is -0.123.

Question: What about the “glycan array binding signal (z-score)” value [20] of the same binder?
Answer: The value was -0.069.

Question: And the “glycan array binding signal (z-score)” value [21]?
Answer: The value was -0.761.

Question: What about the “glycan array binding signal (z-score)” value [22] of the same binder?
Answer: The value was -0.434.

Question: What about the “glycan array binding signal (z-score)” value [23] of the same binder?
Answer: Its value is -0.301.

Question: What about the “glycan array binding signal (z-score)” value [24] of the same binder?
Answer: The value was 0.166.

Question: And the “glycan array binding signal (z-score)” value [25]?
Answer: Its value is -0.113.

Question: And the “glycan array binding signal (z-score)” value [26]?
Answer: Its value is -0.177.

Question: And the “glycan array binding signal (z-score)” value [27]?
Answer: The value was 1.52.

Question: What about the “glycan array binding signal (z-score)” value [28] of the same binder?
Answer: Its value is -0.037.

Question: And the “glycan array binding signal (z-score)” value [29]?
Answer: Its value is 0.748.

Question: What about the “glycan array binding signal (z-score)” value [30] of the same binder?
Answer: The value was -0.153.

Question: What about the “glycan array binding signal (z-score)” value [31] of the same binder?
Answer: Its value is 0.312.

Question: What about the “glycan array binding signal (z-score)” value [32] of the same binder?
Answer: The value was -0.291.

Question: What about the “glycan array binding signal (z-score)” value [33] of the same binder?
Answer: The value was 0.705.

Question: And the “glycan array binding signal (z-score)” value [34]?
Answer: Its value is 0.033.
